# Values from PubChem BioAssay AID493246 (Drosophila RNAi Screening Center, 2011)
# Test: 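Genome-wide search for dsRNAs that reduce cell number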 (primary screen)
# Cell system: Drosophila Kc and S2R+ cells
# Reagents: long dsRNA against Drosophila genes
# Read-out: 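Cell number per well after knock-down, printed as raw plate values; calls were based on per-plate z-scores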
# Reading the numbers: Kc cell number and S2R+ cell number: higher = more cells remaining
# Rule for the call: 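Counted as a hit if cell number falls by a z-score of at least 3 within its plate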
# The screen tested about 21,000 reagents; below is an unselected part of those that have a named target and a result. Of all reagents, 429 (2%) got an active call. 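Values are raw and not normalised between plates; calls rest on per-plate z-scores that were not deposited.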 Unmarked entries are inactive. Reagent sequences are not shown. Not stated in the record: the amount of reagent, the time to read-out.
gene,PubChem SID,"Kc cell number, rep 1","Kc cell number, rep 2","S2R+ cell number, rep 1","S2R+ cell number, rep 2"
RpL37-2 (Ribosomal protein L37-2),SID104184376,1.70e6,1.67e6,1.33e6,1.44e6
Coa8 (Cytochrome c oxidase assembly factor 8),SID104197751,1.52e6,1.42e6,1.07e6,1.15e6
fat-spondin,SID104187409,1.37e6,1.42e6,1.23e6,1.30e6
TwdlN (TweedleN),SID104195605,1.47e6,1.63e6,9.47e5,1.07e6
udt (undicht),SID104194006,1.54e6,1.68e6,1.02e6,1.11e6
pug (pugilist),SID104196828,1.55e6,1.60e6,1.23e6,1.30e6
CG16756,SID104197907,1.48e6,1.59e6,9.74e5,1.17e6
Coq5 (Coenzyme Q5),SID104199641,1.59e6,1.56e6,1.06e6,1.16e6
CG3306,SID104190149,1.34e6,1.43e6,1.30e6,1.24e6
ems (empty spiracles),SID104196733,1.23e6,1.29e6,1.22e6,1.37e6
CG14106,SID104189901,1.26e6,1.29e6,1.27e6,1.37e6
CG1850,SID104186554,1.43e6,1.57e6,1.24e6,1.34e6
CG14630,SID104197958,1.61e6,1.57e6,1.07e6,1.22e6
CG14630,SID104198445,1.52e6,1.49e6,1.06e6,1.21e6
CG14259,SID104194546,1.43e6,1.50e6,1.04e6,1.13e6
MFS14 (Major Facilitator Superfamily Transporter 14),SID104186316,1.31e6,1.50e6,1.09e6,1.13e6
Stt3A,SID104200306,1.44e6,1.48e6,1.02e6,1.12e6
Send2 (Spermathecal endopeptidase 2),SID104181698,1.60e6,1.68e6,1.32e6,1.47e6
CG1143,SID104187980,1.61e6,1.43e6,8.25e5,1.07e6
tutl (turtle),SID104180233,1.47e6,1.52e6,1.11e6,1.24e6
tutl (turtle),SID104180234,1.57e6,1.61e6,1.15e6,1.27e6
tutl (turtle),SID104180235,1.49e6,1.52e6,1.06e6,1.24e6
FBXO11 (F-box protein 11),SID104196289,1.57e6,1.69e6,1.34e6,1.37e6
CG4210,SID104195343,1.24e6,1.32e6,1.15e6,1.28e6
